Source: US8242152B2, “Use of 4-[(4-thiazolyl)phenoxy]alkoxy-benzamidine derivatives for the prophylaxis and treatment of osteoporosis” (Dong Wha Pharmaceutical Co., Ltd., priority 2001, dated 2012)
Some results were stated once for a whole list of compounds, not compound by compound.

Test system: bone resorption of osteoclast
Experiment: Measurement of bone resorption, pit formation assay on ivory fragment (Example 3)
Assay type: cell-based, mice
Conditions: from IC50 values, versus HS1141
Protocol: The mature osteoclast (OCL) is mainly involved in removing mineral by bone resorption. This experiment is designed to measure the inhibitory effects of each test substance on the bone resorption of osteoclast using ivory fragment (Eijiro Jimi et al. Endocrinology 137, p 2187-2190, 1996).
The co-culture system for both bone marrow cells and osteoblast was performed using a cultivation dish containing collagen gel (cell matrix Type I-A). Collagen, 5-fold concentrated α-MEM medium and 0.05M NaOH buffer solution (2.2% NaHCO3, pH7.4) were mixed at the ratio of 7:2:1 at a low temperature, and then storage at a low temperature. Then, 4 mL of the mixed solution was added to a 100 mm culture dish, applied evenly and left at 37° C. for 5 minutes.
Using α-MEM medium, the mixture of both bone marrow cells (about 1×10^7 cells/plate) and osteoblast (about 5×10^5 cells/plate), so separated from Example 1, were plated on a 100 mm dish containing collagen gel. The co-culture was performed in the presence of differentiation factors such as vitamin D (10^−9M) and dexamethasone (10^−6M). As described above, a great number of mature multinucleated osteoclasts with the ability of bone resorption were obtained via a 7-day co-culture. The medium was removed from the cells and with the addition of 0.2% collagenase solution, the attachment cells were separated by incubation for 20 minutes. […]

SMILES | times of inhibitory effect higher than HS1141
Cc1nc(-c2ccc(OCCCCCOc3ccc(C(=N)NO)cc3)cc2)c(C(C)C)s1 [DW1350, N-hydroxy-4-{5-[4-(5-isopropyl-2-methyl-1,3-thiazol-4-yl)phenoxy]pentoxy}-benzamidine] | 3-6 times
Cc1nc(-c2ccc(OCCCCCOc3ccc(C(=N)N)cc3)cc2)c(C(C)C)s1 [DW1352, 4-{5-[4-(5-isopropyl-2-methyl-1,3-thiazol-4-yl)phenoxy]pentoxy}-benzamidine] | 3-6 times
